Data as given in PubChem BioAssay AID1224830 (NIAID, 2016)
Aim: 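Genes whose knock-down alters the TNF-alpha reporter response to LPS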 (primary screen). System: human THP-1 monocytic leukaemia cells, TNF dual-luciferase reporter clone, PMA-differentiated to macrophage-like cells. Reagents: siRNA pool against human genes, 50 nM. Time to read-out: LPS for 4 h, given about 3 days after siRNA transfection. Challenge: bacterial LPS (TLR4 ligand), 10 ng/ml. Detection: 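TNF firefly reporter luminescence divided by renilla, normalised to the plate median, then turned into a robust z-score for each replicate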. Reading the numbers: TNF reporter robust z-score: higher = stronger TNF reporter response to LPS. Rule for the call: 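a well is active when its z-score exceeds 2.8 or falls below -1.5; control wells carry no call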.
The whole screen tested about 18,000 reagents; below is an unselected part. About 2,900 of them (16%) count as active. 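Calls are made per well; low scores hint the gene aids the LPS response, high scores that it dampens it.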 A number with no mark means an inactive call. Repeated entries: four replicate wells of each siRNA pool. No sequences are given here.

{"gene knocked down": "PCIF1", "TNF reporter robust z-score": 1}
{"gene knocked down": "PCIF1", "TNF reporter robust z-score": 1.01}
{"gene knocked down": "PCIF1", "TNF reporter robust z-score": 1.39}
{"gene knocked down": "BCLAF1", "TNF reporter robust z-score": 0.31}
{"gene knocked down": "BCLAF1", "TNF reporter robust z-score": 1.04}
{"gene knocked down": "BCLAF1", "TNF reporter robust z-score": 0.25}
{"gene knocked down": "BCLAF1", "TNF reporter robust z-score": 1.18}
{"gene knocked down": "OR52B2", "TNF reporter robust z-score": -0.26}
{"gene knocked down": "OR52B2", "TNF reporter robust z-score": 0.32}
{"gene knocked down": "OR52B2", "TNF reporter robust z-score": -0.58}
{"gene knocked down": "OR52B2", "TNF reporter robust z-score": 0.2}
{"gene knocked down": "CD101", "TNF reporter robust z-score": -0.22}
{"gene knocked down": "CD101", "TNF reporter robust z-score": -0.41}
{"gene knocked down": "CD101", "TNF reporter robust z-score": 0.31}
{"gene knocked down": "CD101", "TNF reporter robust z-score": "3.77 (active)"}
{"gene knocked down": "DMXL2", "TNF reporter robust z-score": 0.45}
{"gene knocked down": "DMXL2", "TNF reporter robust z-score": 0.92}
{"gene knocked down": "DMXL2", "TNF reporter robust z-score": -0.3}
{"gene knocked down": "DMXL2", "TNF reporter robust z-score": -1.19}
{"gene knocked down": "WDR7", "TNF reporter robust z-score": 0.11}
{"gene knocked down": "WDR7", "TNF reporter robust z-score": -0.22}
{"gene knocked down": "WDR7", "TNF reporter robust z-score": 0.78}
{"gene knocked down": "WDR7", "TNF reporter robust z-score": -0.2}
{"gene knocked down": "ADRB3", "TNF reporter robust z-score": -0.1}
{"gene knocked down": "ADRB3", "TNF reporter robust z-score": 0}
{"gene knocked down": "ADRB3", "TNF reporter robust z-score": -0.54}
{"gene knocked down": "ADRB3", "TNF reporter robust z-score": 0.14}
{"gene knocked down": "CPSF2", "TNF reporter robust z-score": 0.89}
{"gene knocked down": "CPSF2", "TNF reporter robust z-score": 0}
{"gene knocked down": "CPSF2", "TNF reporter robust z-score": "-1.54 (active)"}
{"gene knocked down": "CPSF2", "TNF reporter robust z-score": 1.7}
{"gene knocked down": "MTCL1", "TNF reporter robust z-score": 1.46}
{"gene knocked down": "MTCL1", "TNF reporter robust z-score": 0.89}
{"gene knocked down": "MTCL1", "TNF reporter robust z-score": 0.4}
{"gene knocked down": "MTCL1", "TNF reporter robust z-score": 0.61}
{"gene knocked down": "EPHX2", "TNF reporter robust z-score": -0.75}
{"gene knocked down": "EPHX2", "TNF reporter robust z-score": 0.12}
{"gene knocked down": "EPHX2", "TNF reporter robust z-score": -0.81}
{"gene knocked down": "EPHX2", "TNF reporter robust z-score": -1.2}
{"gene knocked down": "PDLIM4", "TNF reporter robust z-score": -0.05}
{"gene knocked down": "PDLIM4", "TNF reporter robust z-score": 1.63}
{"gene knocked down": "PDLIM4", "TNF reporter robust z-score": -0.19}
{"gene knocked down": "PDLIM4", "TNF reporter robust z-score": -0.76}
{"gene knocked down": "FGF8", "TNF reporter robust z-score": -1.44}
{"gene knocked down": "FGF8", "TNF reporter robust z-score": -1.39}
{"gene knocked down": "FGF8", "TNF reporter robust z-score": -0.64}
{"gene knocked down": "FGF8", "TNF reporter robust z-score": -0.52}
